Data published in publication PMC3338697, “Determination of Membrane Protein Transporter Oligomerization in Native Tissue Using Spatial Fluorescence Intensity Fluctuation Analysis” (PLoS ONE, 2012).
These are yes or no findings as the source states them, for the method shown. Some results given as binding are weak or reduced against the parent protein; the word gives no strength. For some of these results: Where a sequence is shown, tags or fusion partners need not be part of it.

B1: NBCe1-A-EGFP (human electrogenic sodium bicarbonate cotransporter NBCe1-A, EGFP coupled to the N-terminus), expressed in CHO-K1 cells (protein, UniProt Q9Y6R1-2 1-1035)
chain: MSTENVEGKPSNLGERGRARSSTFLRVVQPMFNHSIFTSAVSPAAERIRFILGEEDDSPAPPQLFTELDELLAVDGQEMEWKETARWIKFEEKVEQGGERWSKPHVATLSLHSLFELRTCMEKGSIMLDREASSLPQLVEMIVDHQIETGLLKPELKDKVTYTLLRKHRHQTKKSNLRSLADIGKTVSSASRMFTNPDNGSPAMTHRNLTSSSLNDISDKPEKDQLKNKFMKKLPRDAEASNVLVGEVDFLDTPFIAFVRLQQAVMLGALTEVPVPTRFLFILLGPKGKAKSYHEIGRAIATLMSDEVFHDIAYKAKDRHDLIAGIDEFLDEVIVLPPGEWDPAIRIEPPKSLPSSDKRKNMYSGGENVQMNGDTPHDGGHGGGGHGDCEELQRTGRFCGGLIKDIKRKAPFFASDFYDALNIQALSAILFIYLATVTNAITFGGLLGDATDNMQGVLESFLGTAVSGAIFCLFAGQPLTILSSTGPVLVFERLLFNFSKDNNFDYLEFRLWIGLWSAFLCLILVATDASFLVQYFTRFTEEGFSSLISFIFIYDAFKKMIKLADYYPINSNFKVGYNTLFSCTCVPPDPANISISNDTTLAPEYLPTMSSTDMYHNTTFDWAFLSKKECSKYGGNLVGNNCNFVPDITLMSFILFLGTYTSSMALKKFKTSPYFPTTARKLISDFAIILSILIFCVIDALVGVDTPKLIVPSEFKPTSPNRGWFVPPFGENPWWVCLAAAIPALLVTILIFMDQQITAVIVNRKEHKLKKGAGYHLDLFWVAILMVICSLMALPWYVAATVISIAHIDSLKMETETSAPGEQPKFLGVREQRVTGTLVFILTGLSVFMAPILKFIPMPVLYGVFLYMGVASLNGVQFMDRLKLLLMPLKHQPDFIYLRHVPLRRVHLFTFLQVLCLALLWILKSTVAAIIFPVMILALVAVRKGMDYLFSQHDLSFLDDVIPEKDKKKKEDEKKKKKKKGSLDSDNDDSDCPYSEKVPSIKIPMDIMEQQPFLSDSKPSDRERSPTFLERHTSC
B2: NBCe1-A-bungarotoxin binding peptide construct (protein, UniProt Q9Y6R1-2 1-1035)
chain: B1 chain

How the values were obtained:
[1] = biological target: NBCe1-A-EGFP (human electrogenic sodium bicarbonate cotransporter NBCe1-A, EGFP coupled to the N-terminus), expressed in CHO-K1 cells (human) (UniProt Q9Y6R1); assay: fluorescence image moment analysis; CLSM images of basal membranes of fixed, adherent CHO-K1 cells transiently expressing the construct; quantal brightness normalised to a monomeric control (mEGFP for the EGFP fusion; Alexa 488 dye on glass for the Alexa 488-α-bungarotoxin label), 1 MEU
[2] = biological target: NBCe1-A-EGFP (human electrogenic sodium bicarbonate cotransporter NBCe1-A, EGFP coupled to the N-terminus), expressed in CHO-K1 cells (human) (UniProt Q9Y6R1); assay: spatial intensity distribution analysis (SpIDA); two-population SpIDA of CLSM images of fixed CHO-K1 cells, a monomer-dimer mixture model assumed; calibrated with the monomeric brightness control of each label
[3] = biological target: NBCe1-A-bungarotoxin binding peptide construct (human) (UniProt Q9Y6R1); assay: fluorescence image moment analysi
[4] = biological target: NBCe1-A-bungarotoxin binding peptide construct (human) (UniProt Q9Y6R1); assay: spatial intensity distribution analysis (SpIDA); two-population SpIDA of CLSM images of fixed CHO-K1 cells, a monomer-dimer mixture model assumed; calibrated with the monomeric brightness control of each label

Row | Binder | binding [1] | binding [2] | binding [3] | binding [4]
1 | B1 | binds | binds weakly |  | 
2 | B2 |  |  | binds | binds weakly
